Reference: US20170296650A1
Results are given in words; binding and its absence hold for the method and conditions named. Some binding calls cover weakened binding; strength is not graded here.

By UniProt entry, the sequences of proteins in these tests, tags left out. Where a name states a change or a piece, a line headed by the entry shows the natural chain unless it says otherwise. Residues count along the entry.
UniProt P06473: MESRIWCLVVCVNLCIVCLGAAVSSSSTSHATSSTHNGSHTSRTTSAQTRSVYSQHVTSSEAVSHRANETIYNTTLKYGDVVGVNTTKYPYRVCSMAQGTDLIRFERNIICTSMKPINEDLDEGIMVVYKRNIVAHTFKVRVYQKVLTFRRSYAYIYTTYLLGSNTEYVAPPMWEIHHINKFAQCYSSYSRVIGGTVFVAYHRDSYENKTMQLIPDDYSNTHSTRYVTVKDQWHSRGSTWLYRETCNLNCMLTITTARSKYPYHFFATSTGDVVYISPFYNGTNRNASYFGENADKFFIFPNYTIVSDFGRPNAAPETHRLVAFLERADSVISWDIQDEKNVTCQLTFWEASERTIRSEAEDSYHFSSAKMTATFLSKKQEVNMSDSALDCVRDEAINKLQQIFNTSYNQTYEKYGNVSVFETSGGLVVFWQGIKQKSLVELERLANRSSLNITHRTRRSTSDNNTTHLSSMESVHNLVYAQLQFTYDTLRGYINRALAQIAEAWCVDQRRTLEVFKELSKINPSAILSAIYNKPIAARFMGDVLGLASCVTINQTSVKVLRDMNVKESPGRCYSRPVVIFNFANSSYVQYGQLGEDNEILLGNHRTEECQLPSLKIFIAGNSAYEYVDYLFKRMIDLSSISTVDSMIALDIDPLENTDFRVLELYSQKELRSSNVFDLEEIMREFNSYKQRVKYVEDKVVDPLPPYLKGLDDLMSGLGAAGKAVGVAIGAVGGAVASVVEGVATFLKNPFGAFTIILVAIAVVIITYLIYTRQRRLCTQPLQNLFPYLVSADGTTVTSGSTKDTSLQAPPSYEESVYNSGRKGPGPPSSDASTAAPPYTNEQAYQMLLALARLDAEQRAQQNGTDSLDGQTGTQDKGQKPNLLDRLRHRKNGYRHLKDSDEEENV
hCMV glycoprotein B (gB; HEK293T transfectant): residues 32-906 of P06473
soluble gB ectodomain expressed in a mammalian cell line: residues 32-750 of P06473

T1: hCMV gM + gN (HEK293T co-transfectant) (hCMV) (UniProt P16733)
T1 sequence 1: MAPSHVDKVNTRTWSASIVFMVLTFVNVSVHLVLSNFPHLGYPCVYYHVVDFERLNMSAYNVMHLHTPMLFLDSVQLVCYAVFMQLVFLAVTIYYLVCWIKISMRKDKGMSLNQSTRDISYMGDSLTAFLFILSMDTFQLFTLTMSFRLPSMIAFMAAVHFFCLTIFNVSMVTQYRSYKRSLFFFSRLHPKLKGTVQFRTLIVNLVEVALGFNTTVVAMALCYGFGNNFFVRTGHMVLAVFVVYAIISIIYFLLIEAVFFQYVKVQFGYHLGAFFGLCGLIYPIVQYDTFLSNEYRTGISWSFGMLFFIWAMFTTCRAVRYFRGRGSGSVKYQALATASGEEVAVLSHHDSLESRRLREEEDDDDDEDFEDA
T1 sequence 2: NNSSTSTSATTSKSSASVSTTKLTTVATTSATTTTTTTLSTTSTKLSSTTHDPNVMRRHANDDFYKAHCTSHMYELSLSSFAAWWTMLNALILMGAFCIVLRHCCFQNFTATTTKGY


Legend:
[1] = molecular target: hCMV glycoprotein B (gB; HEK293T transfectant) (hCMV) (UniProt P06473); experiment: staining of transfected HEK293T
[2] = molecular target: T1, hCMV gM + gN (HEK293T co-transfectant) (hCMV); experiment: staining of transfected HEK293T
[3] = molecular target: soluble gB ectodomain expressed in a mammalian cell line (hCMV) (UniProt P06473); experiment: ELISA, soluble gB ectodomain

Binder	binding [1]	also measured
10C6 (antibody, V domains shown) VH: AVQLVESGGGLAQPGRSLRLSCKVSGFSFSNFEMNWVRQAPGKGLEWIAYIDFTGSTIYYSDSVKGRFTISRDTARNSLYLQMNKLRVEDTAVYYCVRDAGRWGTSWYYFDYWGQGTLVTVSS VL: QSVLTQPPSVSGAPGQRVTISCTGLSSNIGAGYDIHWYQQIPGKAPKLLIYGNNNRPSGVPDRFSGSKSGTSVSLAITGLQAEDEADYYCQSYDSSLNGWVFGGGTRLTVL	binds	
5F1 (antibody, V domains shown) VH: AVQLVESGGGLAQPGRSLRLSCKVSGFTFSSYEMNWVRQAPGKGLEWIAYIDFTGSTIYYADSVKGRFTISRDTARNSLYLQMNKLRVEDTAVYYCVRDAGRWGTSWYYFDYWGQGTLVTVSS VL: QSVLTQPPSVSGAPGQRVTISCTGLSSNIGAGYDIHWYQQIPGKAPKLLIYGNNNRPSGVPDRFSGSKSGTSVSLAITGLQAEDEADYYCQSYDSSLNGWVFGGGTRLTVL	binds	
6B4 (antibody, V domains shown) VH: QVQLVESGGGVVQPGRSLRLSCAASGFRFNEFNMHWVRQAPGKGLEWVAVISIDGRHKYNADSVEGRFTISRDNSRNTLYLQMNSLRVEDTALYYCVTDGKAVDGFSGILEFWGQGTPVTVST VL: EIVLTQSPATLSLSPGERATLSCWASQSVGGYLAWYQQKPGQAPRLLIYDASIRATGIPARFSGSGSGTHFTLTINSLEPEDFAVYYCQQRNNWPPLTFGGGTKVEIK	binds	
4H9 (antibody, V domains shown) VH: AVQLVESGGGLVRPGGSLRLSCAASGFTFSSHEMHWVRQAPGKGLEWLSYIDFTGSIIYYADSVRGRFTISRDNTKKSLFLQMNSLRDEDTALYYCARDGGRWGTSWYYFDYWGQGVLVTVSS VL: QSVLTQPPSVSGAPGQRVTITCTGSSSNFGAGYDGHWYQQLPGTAPKLLIYGSNRPSGVPDRFSGSKSGTSVSLAITGLQADDEADYYCQSYDSSLSAWVFGGGTKLTVL	binds	
2B11 (antibody, V domains shown) VH: AVRLVESGGGLAQPGRSLRLSCQVSGFTFGSYEMNWVRQAPGKGLEWIAYIDFTGSTIYYADSVKGRFTISRNTARNSLYLQMNSLRVEDTAVYYCVRDAGRWGTSWYYFDYWGQGTRVTVSP VL: QSVLTQPPSVSGAPGQRVTISCTGISSNIGAGYDIHWYQQIPGKAPKLLVYGNNNRPSGVPDRFSGSKSGTSVSLAITGLQVEDEADYYCQSYDNSLNGWVFGGGTRLTVL	binds	
6L3 (antibody, V domains shown) VH: EVRLEESGGGLVQPGGSLRLSCAASGFTVSTTYMAWVRQAPGKGLEWVSLIHTGGIFGVGGTSYADSVKGRFTISRDTSKNTVSLQMSSLRVEDTAIYFCAREHRGTIDAFDAWGQGTVVIVSS VL: DIHMTQSPSSLSASVGDRVTITCRASQNIRNYLNWYQHKPGKAPKLLIYTTSRLQSGVPSRFSGSGSGTDFTLTVNSLQPEDFASYYCQQSYDGWTFGQGTKVEMK		binding [2]: binds
7H3 (antibody, V domains shown) VH: QVQLVQSGAEVKNPGASVKVSCKASGYTFTDYYIHWVRQAPGQGLEWMGWFNPNSGGTNFVQNFQGRVTMTRDTSISTAYMELSRLRSDDTAMYYCAKDSAKTASAYYGLNFFYYGMDVWGQGTTVTVSS VL: QSVLSQPPSASGTPGQRVTISCSGSSSNIGKNYVYWYQQVPGTAPKLLMFKNNQRPSGVPDRFSGSKSGTSASLAISGLRSEDEADYYCSAWDGSLSRPLFGGGTKVTVL		binding [3]: binds
